No constants are given. Whether binding was seen depends on the method and setting. Some binding calls cover weakened binding; strength is not graded here.

The chains behind the UniProt entries cited, without tags or fusion partners. Where a name states a change or a piece, a line headed by the entry shows the natural chain unless it says otherwise. A line that says so, or that is headed by a name, gives the form on record, which may keep a tag or linker.
GST-ERβ(W335A)-LBD (Q92731, form named): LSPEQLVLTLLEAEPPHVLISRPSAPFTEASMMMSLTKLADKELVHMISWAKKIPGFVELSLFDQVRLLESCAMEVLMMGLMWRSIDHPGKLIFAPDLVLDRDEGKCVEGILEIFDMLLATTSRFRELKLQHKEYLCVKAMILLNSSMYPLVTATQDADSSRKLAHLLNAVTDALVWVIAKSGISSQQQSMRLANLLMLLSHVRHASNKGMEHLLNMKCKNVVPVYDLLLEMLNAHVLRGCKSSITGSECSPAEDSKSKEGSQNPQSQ

This assay deals with GST-ERβ(W335A)-LBD (human) (UniProt Q92731). Description: SPR; Biacore T100; SRC1 peptide on ERβ(W335A); ligand condition not told in the text (Fig. S5); both purified. In general terms: In SPR one partner is held on a chip, and binding of the other changes the refractive index at the surface.

B1: SRC1 peptide (amino acids 685–697) derived from human nuclear receptor coactivator 1 (peptide)
peptide: ERHKILHRLLQEG
notes: source: synthetic peptide (ABI 433A, solid phase, Fmoc chemistry)
In the case of B1, the binding entry is listed as “binds weakly”.

Values taken from article PMC8551653, “Bisphenol A derivatives act as novel coactivator-binding inhibitors for estrogen receptor β” (The Journal of Biological Chemistry, 2021).
